Patent publication US9249104B2, “Pyrazole indanyl carboxamides” (BAYER CROPSCIENCE AG, priority 2012, dated 2016)

Assay: logP by HPLC on reversed phase columns (EEC directive 79/831 Annex V.A8)
Format: physicochemical
Settings: method [a]: LC-MS at pH 2.7, 0.1% formic acid in water / acetonitrile; compounds of formula (I), Table 1

Compound: Cc1nn(C)c(F)c1C(=O)Nc1cccc2c1CC(C)(C)C2 [Example 44]
- logP: 3.17[a]
